According to patent US6573060B1, “Methods and compositions for targeting DNA metabolic processes using aminoglycoside derivatives” (University of Virginia Patent Foundation, priority 1997, dated 2003):
For some of these results: The name of at least one read-out is uncertain. For some of these results: At least one compound was matched to its structure with a doubt left.

What was measured:
DNA-dependent ATPase A = molecular target: T1, DNA-dependent ATPase A (Bos taurus, UniProt Q9TTA5); assay: Inhibition of ATP hydrolysis by DNA-dependent ATPase A (overexpressed 82 kDa ADAAD); assay type: biochemical, bovine; conditions: Table 4; determined in the presence of effector
T1 sequence (Q9TTA5 222-940): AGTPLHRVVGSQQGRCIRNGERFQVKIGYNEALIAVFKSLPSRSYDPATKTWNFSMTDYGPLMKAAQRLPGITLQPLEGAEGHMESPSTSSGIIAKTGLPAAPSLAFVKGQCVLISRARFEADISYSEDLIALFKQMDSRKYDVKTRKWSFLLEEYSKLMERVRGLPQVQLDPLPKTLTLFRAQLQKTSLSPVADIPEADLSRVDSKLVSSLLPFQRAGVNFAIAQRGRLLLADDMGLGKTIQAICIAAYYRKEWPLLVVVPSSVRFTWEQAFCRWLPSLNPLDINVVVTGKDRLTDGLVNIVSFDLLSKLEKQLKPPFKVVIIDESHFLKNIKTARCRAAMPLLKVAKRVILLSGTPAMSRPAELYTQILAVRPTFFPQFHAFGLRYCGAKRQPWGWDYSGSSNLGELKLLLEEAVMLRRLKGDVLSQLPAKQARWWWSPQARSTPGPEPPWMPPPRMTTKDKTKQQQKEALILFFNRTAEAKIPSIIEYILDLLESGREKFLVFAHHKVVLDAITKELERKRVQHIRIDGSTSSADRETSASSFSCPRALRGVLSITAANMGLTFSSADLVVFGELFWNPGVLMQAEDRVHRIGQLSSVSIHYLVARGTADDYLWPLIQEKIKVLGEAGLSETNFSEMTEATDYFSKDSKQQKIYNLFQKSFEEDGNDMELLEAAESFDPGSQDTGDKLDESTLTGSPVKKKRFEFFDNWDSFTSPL
Protocol: Enzyme (0.2 units (one unit is the amount of enzyme required to hydrolyze 1 μmole of adenosine triphosphate per min)) was mixed with 50 mM Tris-SO4, pH 7.5, 1 mM MgCl2, 5 mM β-mercaptoethanol, 0.5 mg/mL bovine serum albumin, 2 mM phosphoenol pyruvate, 0.03 mg/mL pyruvate kinase, 10 nM of stem-loop DNA, and 2 mM adenosine triphosphate in a total volume of 100 μL. The reaction was typically incubated at 37° C. for 10-60 minutes. At the end of the designated time, 225 μL of 10% sodium dodecyl sulfate and 350 μL of water were added to stop the reaction. Color development requires the addition of two reagents: 180 μL of reagent A (prepared by mixing equal volumes of 60 to 70% perchloric acid and 5% ammonium molybdate in water) and 45 μL of reagent B (0.2 g 1:2:4 aminonaphthol sulfonic acid, 12.0 g sodium metabisulfite, and 2.4 g sodium sulfite dissolved in 100 mL of water) was added. The reaction was incubated at room temperature for 10 minutes and the absorbance was read at 720 nm. The color development was time-dependent and therefore samples must be read at exactly 10 minutes.
Enzyme (0.2 units (one unit is the amount of enzyme required to hydrolyze 1 μmole of adenosine triphosphate per min)) was mixed with 25 mM Tris-acetate pH 7.5, 6 mM Mg(acetate)2, 60 mM KCl, 5 mM β-mercaptoethanol, 3 mM phosphoenol pyruvate, 10 units/mL pyruvate kinase, 10 units/mL lactate dehydrogenase 10 nM DNA, 2 mM adenosine triphosphate, and 0.1 mg/mL NADH in a final volume of 1 mL. The progress of the reaction at 37° C. was monitored at 340 nm using an HP8452 spectrophotometer.
Enzyme (0.2 U) was mixed with 50 mM Tris-SO4, pH 7.5, 1 mM MgCl2, 5 mM β-mercaptoethanol, 0.5 mg/mL bovine serum albumin, 2 mM phosphoenol pyruvate, 0.03 mg/mL pyruvate kinase, 10 nM of stem-loop DNA, and 2 mM adenosine triphosphate in a total volume of 50 μL. Three (3) μCi of [^32P]-γ-adenosine triphosphate was added to the reaction and typical incubation was for 60 minutes 37° C. EDTA (25 mM) was added to stop the reaction. 10 μL of the reaction was spotted on a poly(ethylenimine)-cellulose plate. […]

PC3 cell line = assay: MTS cell survival assay, PC3 prostate cancer cells; assay type: cell-based, human; conditions: initial blind experiment, at the concentrations used; 7200 min
Protocol: The effect of phosphoaminoglycosides on tumor cell growth was tested in cell culture inhibition studies. 5000 cells were plated in a total volume of 50 μl in a 96 well titer plate. After 24 hours, 50 μl of media and drugs, to the required final concentration, were added. The plates were incubated at 37° C. for 5 days. On the 5th day, the fraction of surviving cells was estimated using a non-radioactive cell proliferation assay (CellTiter 96 AQueous Cell Proliferation Assay from Promega).
This is a colorimetric assay that determines the number of viable cells. […] The absorbance of formazan at 490 nm can be measured from the 96 well assay plate without additional processing. […] The quantity of formazan product as measured by the amount of 490 nm absorbance is directly proportional to the number of living cells in culture. […] 20 μl of PMS/MTS solution was added to the cells and the plates were incubated at 37° C. for 2 hours before measuring the absorbance at 490 nm. […]
5000 cells were grown overnight in media and each respective drug (A-kanamycin, B-phosphokanamycin, C-neomycin, and D-phosphoneomycin) was added on the second day. […] Each point is the average of readings from three wells.

| SMILES | Ki (DNA-dependent ATPase A) | reduction in cell survival (PC3 cell line) |
| --- | --- | --- |
| NCC1O[C@H](O[C@H]2[C@@H](O)[C@H](O[C@@H]3[C@@H](O)[C@H](N)C[C@H](N)[C@H]3O[C@H]3O[C@H](CO)[C@@H](O)[C@H](OP(=O)(O)O)[C@H]3N)O[C@@H]2COP(=O)(O)O)[C@H](N)[C@@H](O)[C@@H]1O (stereo partly shown) [3′ and 5″ phosphorylated paromomycin] | 250 nM | – |
| NCC[C@H](O)C(=O)N[C@@H]1C[C@H](N)[C@@H](O[C@H]2O[C@H](CN)[C@@H](O)[C@H](OP(=O)(O)O)[C@H]2N)[C@H](O[C@@H]2O[C@H](COP(=O)(O)O)C(O)[C@H]2O)[C@H]1O (stereo partly shown) [3′ and 5″phosphorylated butirosin] | 180 nM | – |
| NC[C@@H]1O[C@H](O[C@H]2[C@@H](O)[C@H](O[C@@H]3[C@@H](O)[C@H](N)C[C@H](N)[C@H]3O[C@H]3O[C@H](CO)[C@@H](O)C[C@H]3N)O[C@@H]2COP(=O)(O)O)[C@H](N)[C@@H](O)[C@@H]1O[C@H]1O[C@H](CO)[C@@H](O)[C@H](O)[C@@H]1O [5″ phosphorylated lividomycin] | 27 nM | – |
| NC[C@H]1O[C@H](O[C@H]2[C@H](O)[C@@H](O[C@H]3O[C@H](CO)[C@@H](O)[C@H](N)[C@H]3O)[C@H](N)C[C@@H]2N)[C@H](O)[C@@H](OP(=O)(O)O)[C@@H]1O [phosphokanamycin, 3′-phosphokanamycin] | – | 24% |
